# Laboratory results published in the supplement of paper PMC8728848.
# Some of the results follow.
# What was measured:
# Assay in all cases: glycan array binding signal (z-score within array); higher = stronger binding
# Conditions in all cases: glycan notation: IUPAC condensed, linker removed
# [1] = biological target: Fuc(a1-2)[GalNAc(b1-3)]Gal
# Summary of the method: (§1)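 Negative Z-scores can be read as non-binding. The Z-score is calculated within each array and then averaged across arrays of one protein sequence at different concentrations or buffers and across linkers. Arrays, 3228 in all, were curated from the Consortium for Functional Glycomics database and kept only where the protein sequence was available.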
# Fuc(a1-3)GlcNAc = biological target: Fuc(a1-3)GlcNAc
# Summary of the method: as §1
# [2] = biological target: Fuc(a1-3)[Gal(b1-4)]Glc6S
# Summary of the method: as §1
# [3] = biological target: Fuc(a1-3)[Gal(b1-4)]GlcNAc
# Summary of the method: as §1
# [4] = biological target: Fuc(a1-3)[Gal(b1-4)]GlcNAc(b1-2)Man
# Summary of the method: as §1
# [5] = biological target: Fuc(a1-3)[Gal(b1-4)]GlcNAc(b1-2)Man(a1-3)[Fuc(a1-3)[Gal(b1-4)]GlcNAc(b1-2)Man(a1-6)]Man(b1-4)GlcNAc(b1-4)GlcNAc
# Summary of the method: as §1
# [6] = biological target: Fuc(a1-3)[Gal(b1-4)]GlcNAc(b1-2)Man(a1-3)[Fuc(a1-3)[Gal(b1-4)]GlcNAc(b1-2)Man(a1-6)]Man(b1-4)GlcNAc(b1-4)[Fuc(a1-6)]GlcNAc
# Summary of the method: as §1
# [7] = biological target: Fuc(a1-3)[Gal(b1-4)]GlcNAc(b1-3)Gal(b1-3)[Fuc(a1-4)]GlcNAc
# Summary of the method: as §1
# [8] = biological target: Fuc(a1-3)[Gal(b1-4)]GlcNAc(b1-3)Gal(b1-4)[Fuc(a1-3)]GlcNAc
# Summary of the method: as §1
# [9] = biological target: Fuc(a1-3)[Gal(b1-4)]GlcNAc(b1-3)Gal(b1-4)[Fuc(a1-3)]GlcNAc(b1-3)Gal(b1-4)[Fuc(a1-3)]GlcNAc
# Summary of the method: as §1
# [10] = biological target: Fuc(a1-3)[Gal(b1-4)]GlcNAc(b1-3)GalNAc
# Summary of the method: as §1
# [11] = biological target: Fuc(a1-3)[Gal(b1-4)]GlcNAc(b1-6)GalNAc
# Summary of the method: as §1
# [12] = biological target: Fuc(a1-3)[Gal(b1-4)]GlcNAc(b1-6)[Gal(b1-3)GlcNAc(b1-3)]Gal(b1-4)Glc
# Summary of the method: as §1
# [13] = biological target: Fuc(a1-3)[Gal(b1-4)]GlcNAc6S
# Summary of the method: as §1
# [14] = biological target: Fuc(a1-3)[Gal3S(b1-4)]Glc
# Summary of the method: as §1
# [15] = biological target: Fuc(a1-3)[Gal3S(b1-4)]GlcNAc
# Summary of the method: as §1
# [16] = biological target: Fuc(a1-3)[Gal3S(b1-4)]GlcNAc6S
# Summary of the method: as §1
# [17] = biological target: Fuc(a1-3)[GalNAc(b1-4)]GlcNAc
# Summary of the method: as §1
# [18] = biological target: Fuc(a1-3)[GalNAc(b1-4)]GlcNAc6S
# Summary of the method: as §1
# Fuc(a1-4)GlcNAc = biological target: Fuc(a1-4)GlcNAc
# Summary of the method: as §1
# Fuc(b1-3)GlcNAc = biological target: Fuc(b1-3)GlcNAc
# Summary of the method: as §1
# Gal(a1-2)Gal = biological target: Gal(a1-2)Gal
# Summary of the method: as §1
# Gal(a1-3)Gal = biological target: Gal(a1-3)Gal
# Summary of the method: as §1
# Gal(a1-3)Gal(b1-3)GlcNAc = biological target: Gal(a1-3)Gal(b1-3)GlcNAc
# Summary of the method: as §1
# [19] = biological target: Gal(a1-3)Gal(b1-3)GlcNAc(b1-2)Man
# Summary of the method: as §1
# [20] = biological target: Gal(a1-3)Gal(b1-3)GlcNAc(b1-2)Man(a1-3)[Gal(a1-3)Gal(b1-3)GlcNAc(b1-2)Man(a1-6)]Man(b1-4)GlcNAc(b1-4)GlcNAc
# Summary of the method: as §1
# [21] = biological target: Gal(a1-3)Gal(b1-3)GlcNAc(b1-3)GalNAc
# Summary of the method: as §1
# [22] = biological target: Gal(a1-3)Gal(b1-3)GlcNAc(b1-6)GalNAc
# Summary of the method: as §1
# [23] = biological target: Gal(a1-3)Gal(b1-3)[Fuc(a1-4)]GlcNAc(b1-2)Man(a1-3)[Gal(a1-3)Gal(b1-3)[Fuc(a1-4)]GlcNAc(b1-2)Man(a1-6)]Man(b1-4)GlcNAc(b1-4)GlcNAc
# Summary of the method: as §1
# Gal(a1-3)Gal(b1-4)Glc = biological target: Gal(a1-3)Gal(b1-4)Glc
# Summary of the method: as §1
binder,measurement,setting,value
"cFel (Cyprinus carpio), P68512 (protein) LDCTVIDGNLKQIDAGSGSVVGVNNLNETFVLIDNVFTKISGSLKHFSVGPAGQLGVNTANNIFKYQSGGFVQLAGLLKQVDAGGDQIIAGVNMYDDIYCLNMDANNKWPSSNTPWVQINGKLKYYSCGPYSCWGVNSNDQIFIMKDVSSNVCSGSGSFINIPGLLSMIEVATDGSVFGVNSQGNLYQRTGVTRSKPDGTDWISMVACPNGHKHVSFDLGVLWLVCVDGSIRKCILTD",glycan array binding signal (z-score),[1],1.52
same,glycan array binding signal (z-score),Fuc(a1-3)GlcNAc,-1.02
same,glycan array binding signal (z-score),[2],0.408
same,glycan array binding signal (z-score),[3],-0.26
same,glycan array binding signal (z-score),[4],1.26
same,glycan array binding signal (z-score),[5],1.84
same,glycan array binding signal (z-score),[6],0.633
same,glycan array binding signal (z-score),[7],0.265
same,glycan array binding signal (z-score),[8],-0.327
same,glycan array binding signal (z-score),[9],-0.301
same,glycan array binding signal (z-score),[10],-0.581
same,glycan array binding signal (z-score),[11],0.701
same,glycan array binding signal (z-score),[12],0.837
same,glycan array binding signal (z-score),[13],0.043
same,glycan array binding signal (z-score),[14],-0.663
same,glycan array binding signal (z-score),[15],1.83
same,glycan array binding signal (z-score),[16],-0.671
same,glycan array binding signal (z-score),[17],1.39
same,glycan array binding signal (z-score),[18],-0.354
same,glycan array binding signal (z-score),Fuc(a1-4)GlcNAc,-0.963
same,glycan array binding signal (z-score),Fuc(b1-3)GlcNAc,0.178
same,glycan array binding signal (z-score),Gal(a1-2)Gal,0.284
same,glycan array binding signal (z-score),Gal(a1-3)Gal,-1.12
same,glycan array binding signal (z-score),Gal(a1-3)Gal(b1-3)GlcNAc,-0.677
same,glycan array binding signal (z-score),[19],0.809
same,glycan array binding signal (z-score),[20],-0.427
same,glycan array binding signal (z-score),[21],-0.742
same,glycan array binding signal (z-score),[22],0.326
same,glycan array binding signal (z-score),[23],1.49
same,glycan array binding signal (z-score),Gal(a1-3)Gal(b1-4)Glc,-0.401

# Exported as tab-separated lines: entries from further up.
binder	measurement	setting	value
cFel (Cyprinus carpio), P68512 (protein) LDCTVIDGNLKQIDAGSGSVVGVNNLNETFVLIDNVFTKISGSLKHFSVGPAGQLGVNTANNIFKYQSGGFVQLAGLLKQVDAGGDQIIAGVNMYDDIYCLNMDANNKWPSSNTPWVQINGKLKYYSCGPYSCWGVNSNDQIFIMKDVSSNVCSGSGSFINIPGLLSMIEVATDGSVFGVNSQGNLYQRTGVTRSKPDGTDWISMVACPNGHKHVSFDLGVLWLVCVDGSIRKCILTD	glycan array binding signal (z-score)	[14]	-0.663
same	glycan array binding signal (z-score)	[20]	-0.427
